Measurements as given in paper PMC13170660.

Target: T1, IgLON5 (mouse (endogenous in primary hippocampal neurons)) (UniProt Q8HW98)
T1 sequence: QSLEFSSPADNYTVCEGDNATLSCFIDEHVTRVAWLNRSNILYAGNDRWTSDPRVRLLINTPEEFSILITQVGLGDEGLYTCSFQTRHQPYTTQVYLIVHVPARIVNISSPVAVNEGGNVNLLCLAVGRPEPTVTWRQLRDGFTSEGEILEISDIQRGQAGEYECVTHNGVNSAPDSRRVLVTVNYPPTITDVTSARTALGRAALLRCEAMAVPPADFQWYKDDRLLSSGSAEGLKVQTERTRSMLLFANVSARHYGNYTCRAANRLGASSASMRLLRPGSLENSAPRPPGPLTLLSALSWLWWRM
Experiment: proximity labelling; live primary mouse hippocampal neurons (DIV12) treated with α-IgLON5#1 or pCtrl (1 μg/ml, 60 min, 37°C), fixed with 4% PFA, HRP-conjugated α-human secondary antibody, 250 μM biotin-tyramide and 50 μM H2O2 for 1 min; streptavidin bead pulldown and MS; enrichment of α-IgLON5#1 against pCtrl

B1: Cntn6 (protein, UniProt Q9JMB8 20-999)
chain: EGRFSRPIFIQEPQDVIFPLDLSRSEIILTCTANGYPSPHYRWKQNGTDIDFGMTYHYRLDGGSLAISSPRTDQDIGIYQCLATNPVGTILSRKAKLQFAYIEDFETKTRSTVSVREGQGVVLLCGPPPHFGELSYAWTFNDSPLYVQEDKRRFVSQDTGNLYFAKVEPSDVGNYTCFVTNKEAHRSVQGPPTPLVLRTDGVMGEYEPKIEVRFPETIQAAKDSSIKLECFALGNPVPDISWKRLDGSPMPGKIKYSKSQAILEIPKFQQEDEGFYECIAGNLRGRNLAKGQLIFYAPPEWEQKIQNTYLSIYDSLFWECKASGNPNPSYTWLKNGQRLNTEERIQIENGTLIITMLNISDSGIYQCAAENKYQTIYANAELRVLASAPDFSKNPIKKISVVQVGGDISIECKPNAFPKASISWKRGTENLKQSKRVLFLEDGSLKICNVTRADAGSYTCVATNQFGNGKSSGGLVVKERTIITVPPSKMDVTVGESIVLPCQVSHDPTMEVLFVWYFNGDIIDLKKGVAHFERIGGESVGDLMIRNIQLGHSGKYLCTVQTTLERLSAVADIIVRGPPGPPEDVKVEHISSTTSQLSWRPGPDNNSPIQIFTIQTRTPFSVGWQAVATVPEILNGQTYNATVVGLSPWVEYEFRVVAGNNIGIGEPSKPSELLRTKASVPNVAPGNINGGGGSRSELVITWEAIPEELQNGEGFGYIVMFRPVGTTAWMKERVALVESSKFIYRNESIMPLSPFEVKVGVYNNEGEGSLSTVTIVYSGEDEPQLAPRGTSVQSFSASEMEVSWNAIAWNRNTGRVLGYEVLYWTDNSKESMIGKIRVSGNVTTKNITGLRANTIYFASVRAYNTAGTGPSSLPVNVTTKKSPPSQPPANIAWKLSNSKLCLNWEHVKTMENESEVLGYKILYRQNRQSKTHILETNNTSAELLVPFEEDYLIEIRTVSDGGDGSSSEEIRIPKMSSLSS
With B1 the binding was “binds”.

B2: NTM (=IgLON2) (protein, UniProt Q99PJ0 34-321)
chain: GDATFPKAMDNVTVRQGESATLRCTIDNRVTRVAWLNRSTILYAGNDKWCLDPRVVLLSNTQTQYSIEIQNVDVYDEGPYTCSVQTDNHPKTSRVHLIVQVSPKIVEISSDISINEGNNISLTCIATGRPEPTVTWRHISPKAVGFVSEDEYLEIQGITREQSGEYECSASNDVAAPVVRRVKVTVNYPPYISEAKGTGVPVGQKGTLQCEASAVPSAEFQWFKDDKRLVEGKKGVKVENRPFLSKLTFFNVSEHDYGNYTCVASNKLGHTNASIMLFGPGAVSEVNN
For B2, the binding was “binds”.

No constants are given. Whether binding was seen depends on the method and setting. Binding seen in cells or lysates may run through a third protein. These calls come from enrichment with a bait or labelling near it, and not all partners need be listed.
